# Primary screen of a compound library

By UniProt entry, the sequences of proteins in these tests, tags left out. Residues count along the entry.
UniProt Q8IDJ8, 1-583: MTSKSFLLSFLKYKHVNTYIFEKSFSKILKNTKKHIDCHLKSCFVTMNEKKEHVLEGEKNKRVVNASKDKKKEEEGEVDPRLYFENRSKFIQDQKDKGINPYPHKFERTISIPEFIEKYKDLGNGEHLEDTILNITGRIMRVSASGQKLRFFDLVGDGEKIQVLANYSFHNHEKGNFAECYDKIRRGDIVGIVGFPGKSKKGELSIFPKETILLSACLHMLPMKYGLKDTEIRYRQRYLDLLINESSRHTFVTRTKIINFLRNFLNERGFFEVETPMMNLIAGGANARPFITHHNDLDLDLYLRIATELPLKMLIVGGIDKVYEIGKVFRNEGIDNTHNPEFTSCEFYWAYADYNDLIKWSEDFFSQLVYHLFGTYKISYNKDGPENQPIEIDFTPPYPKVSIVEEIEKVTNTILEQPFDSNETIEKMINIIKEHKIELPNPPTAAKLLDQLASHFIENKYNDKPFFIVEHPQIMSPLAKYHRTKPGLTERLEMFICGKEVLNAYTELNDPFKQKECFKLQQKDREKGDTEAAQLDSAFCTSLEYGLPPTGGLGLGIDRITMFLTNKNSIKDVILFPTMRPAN
UniProt I6X8D2, whole entry: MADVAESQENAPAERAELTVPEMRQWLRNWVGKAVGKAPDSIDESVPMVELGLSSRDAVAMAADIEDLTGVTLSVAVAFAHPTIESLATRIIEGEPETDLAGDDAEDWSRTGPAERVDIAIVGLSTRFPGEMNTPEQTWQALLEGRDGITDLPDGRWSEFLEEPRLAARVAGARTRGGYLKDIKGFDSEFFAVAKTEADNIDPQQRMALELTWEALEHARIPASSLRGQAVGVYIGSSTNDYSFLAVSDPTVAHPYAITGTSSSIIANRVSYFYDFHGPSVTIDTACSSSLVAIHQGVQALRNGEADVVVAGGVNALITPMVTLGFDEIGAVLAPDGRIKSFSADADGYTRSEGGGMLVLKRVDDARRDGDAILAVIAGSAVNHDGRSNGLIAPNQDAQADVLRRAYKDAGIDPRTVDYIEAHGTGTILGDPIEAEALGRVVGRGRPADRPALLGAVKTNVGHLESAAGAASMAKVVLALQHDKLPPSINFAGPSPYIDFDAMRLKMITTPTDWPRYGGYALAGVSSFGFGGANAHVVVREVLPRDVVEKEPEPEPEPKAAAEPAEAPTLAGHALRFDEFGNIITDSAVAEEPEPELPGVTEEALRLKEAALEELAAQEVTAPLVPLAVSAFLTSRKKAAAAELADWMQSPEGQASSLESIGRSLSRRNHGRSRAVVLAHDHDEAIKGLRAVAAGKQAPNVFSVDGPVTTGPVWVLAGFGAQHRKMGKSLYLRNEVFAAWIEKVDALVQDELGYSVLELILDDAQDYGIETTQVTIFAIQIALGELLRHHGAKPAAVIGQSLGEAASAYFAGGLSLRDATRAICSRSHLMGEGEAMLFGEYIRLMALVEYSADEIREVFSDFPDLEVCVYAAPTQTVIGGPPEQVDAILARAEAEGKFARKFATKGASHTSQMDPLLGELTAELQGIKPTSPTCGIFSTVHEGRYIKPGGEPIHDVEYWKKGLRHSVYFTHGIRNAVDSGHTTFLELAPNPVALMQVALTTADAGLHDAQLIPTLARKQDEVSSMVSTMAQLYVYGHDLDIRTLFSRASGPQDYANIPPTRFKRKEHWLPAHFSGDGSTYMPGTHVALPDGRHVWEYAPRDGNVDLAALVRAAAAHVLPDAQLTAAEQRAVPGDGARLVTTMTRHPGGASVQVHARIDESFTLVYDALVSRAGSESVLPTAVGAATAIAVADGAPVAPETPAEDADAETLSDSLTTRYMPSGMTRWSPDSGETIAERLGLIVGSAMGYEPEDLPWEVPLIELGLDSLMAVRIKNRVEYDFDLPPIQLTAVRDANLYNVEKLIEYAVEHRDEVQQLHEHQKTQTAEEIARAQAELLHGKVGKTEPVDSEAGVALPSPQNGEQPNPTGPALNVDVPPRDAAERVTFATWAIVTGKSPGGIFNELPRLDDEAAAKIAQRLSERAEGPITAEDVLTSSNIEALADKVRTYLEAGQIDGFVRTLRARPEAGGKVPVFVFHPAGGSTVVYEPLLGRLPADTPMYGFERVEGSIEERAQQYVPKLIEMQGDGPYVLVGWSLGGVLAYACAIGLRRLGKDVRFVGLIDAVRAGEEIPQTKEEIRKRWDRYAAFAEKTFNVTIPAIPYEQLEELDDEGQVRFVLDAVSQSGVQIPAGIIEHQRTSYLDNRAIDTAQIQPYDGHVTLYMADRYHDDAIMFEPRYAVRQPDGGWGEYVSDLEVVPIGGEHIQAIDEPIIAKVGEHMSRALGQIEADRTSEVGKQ
UniProt P9WNZ1, whole entry: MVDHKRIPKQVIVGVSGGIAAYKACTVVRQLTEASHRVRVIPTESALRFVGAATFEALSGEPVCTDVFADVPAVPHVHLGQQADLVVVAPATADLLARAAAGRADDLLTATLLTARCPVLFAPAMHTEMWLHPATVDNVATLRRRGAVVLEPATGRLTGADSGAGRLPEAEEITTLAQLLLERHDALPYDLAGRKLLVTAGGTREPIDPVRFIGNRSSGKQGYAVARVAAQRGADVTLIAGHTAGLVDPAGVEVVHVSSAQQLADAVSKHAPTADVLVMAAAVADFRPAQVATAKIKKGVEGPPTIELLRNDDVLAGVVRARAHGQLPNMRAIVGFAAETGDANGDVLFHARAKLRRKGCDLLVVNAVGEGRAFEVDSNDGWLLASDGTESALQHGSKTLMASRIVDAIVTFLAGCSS
UniProt Q4DA54, 1-478: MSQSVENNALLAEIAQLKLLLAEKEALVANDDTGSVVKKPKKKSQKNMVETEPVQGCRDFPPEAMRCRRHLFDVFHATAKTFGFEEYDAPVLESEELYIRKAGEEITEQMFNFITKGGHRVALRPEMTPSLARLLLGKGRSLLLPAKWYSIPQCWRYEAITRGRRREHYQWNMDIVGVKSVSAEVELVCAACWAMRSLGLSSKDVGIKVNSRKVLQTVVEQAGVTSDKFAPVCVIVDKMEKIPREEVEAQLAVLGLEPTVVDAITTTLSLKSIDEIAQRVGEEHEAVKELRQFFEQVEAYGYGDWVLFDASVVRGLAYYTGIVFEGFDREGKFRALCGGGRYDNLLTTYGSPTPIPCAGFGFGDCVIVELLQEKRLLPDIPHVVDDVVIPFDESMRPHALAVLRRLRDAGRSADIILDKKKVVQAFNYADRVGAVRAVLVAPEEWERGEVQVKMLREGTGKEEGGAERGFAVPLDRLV
UniProt P9WFT3, whole entry: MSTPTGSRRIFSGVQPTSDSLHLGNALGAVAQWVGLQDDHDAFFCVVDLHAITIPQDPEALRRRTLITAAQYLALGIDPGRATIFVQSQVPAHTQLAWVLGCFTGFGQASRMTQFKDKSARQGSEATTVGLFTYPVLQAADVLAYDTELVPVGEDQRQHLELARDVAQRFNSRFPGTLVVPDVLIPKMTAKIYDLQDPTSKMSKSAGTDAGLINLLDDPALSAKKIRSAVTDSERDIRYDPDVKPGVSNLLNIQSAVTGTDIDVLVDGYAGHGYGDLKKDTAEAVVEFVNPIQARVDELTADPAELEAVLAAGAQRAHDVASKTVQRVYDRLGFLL
UniProt P9WPC5, whole entry: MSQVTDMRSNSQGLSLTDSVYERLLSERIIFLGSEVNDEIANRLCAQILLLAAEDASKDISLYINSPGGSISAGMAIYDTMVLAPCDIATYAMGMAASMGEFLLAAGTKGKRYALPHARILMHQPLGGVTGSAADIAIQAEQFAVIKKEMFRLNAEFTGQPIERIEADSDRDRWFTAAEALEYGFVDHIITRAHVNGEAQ
UniProt P9WPC3, whole entry partner: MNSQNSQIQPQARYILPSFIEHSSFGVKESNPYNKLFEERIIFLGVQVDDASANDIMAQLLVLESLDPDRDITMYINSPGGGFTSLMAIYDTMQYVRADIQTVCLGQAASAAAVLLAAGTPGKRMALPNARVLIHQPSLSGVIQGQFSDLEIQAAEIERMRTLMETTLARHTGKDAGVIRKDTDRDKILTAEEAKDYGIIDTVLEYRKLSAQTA

Measurements from “University of Dundee, Small-Polar-MMV Screening Library” (2021), ChEMBL document CHEMBL3988442.

A: 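Enzyme assay of the cytosolic lysyl-tRNA synthetase in 384-well plates, read by luminescence. Target: Lysine-tRNA ligase, Plasmodium falciparum 3D7 (UniProt Q8IDJ8). Tested at 30 µM. Direction is inferred from only a few compounds that gave an IC50; most scored high, so higher reads as stronger inhibition. Size under these conditions: about 69,000 compounds, about 49 of them at 50% or above in at least one test.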
B: 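Polyketide synthase Pks13, Mycobacterium tuberculosis (UniProt I6X8D2). Enzyme assay of the thioesterase domain of polyketide synthase 13; the read-out is not stated. Concentration: 30 µM. The record gives no direction; the compounds picked for IC50 retests had high values, so higher reads as stronger inhibition. Of about 67,000 compounds tested this way, about 300 (0.46%) reached 50% or more in at least one test.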
C: 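Enzyme assay of CoaBC with a phosphate dye (Biomol Green) read at 650 nm. Target: Coenzyme A biosynthesis protein CoaBC, Mycobacterium tuberculosis (UniProt P9WNZ1). Tested at 30 µM. Higher reads as stronger inhibition, judged from the few compounds that gave an IC50. Most strong results did not repeat in a second test. About 67,000 compounds were tested under these conditions; 0.06% (about 40) showed 50% or more at least once.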
D: 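Enzyme assay of histidyl-tRNA synthetase; the read-out is not stated. Target: Histidine-tRNA ligase, Trypanosoma cruzi CL Brener (UniProt Q4DA54). Compounds at 30 µM. Higher reads as stronger inhibition (inferred: compounds with an IC50 in retests scored well above the rest). Of about 69,000 compounds tested this way, about 31 (0.045%) reached 50% or more in at least one test.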
E: 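Enzyme assay of tryptophanyl-tRNA synthetase; the read-out is not stated. Target: Tryptophan-tRNA ligase, Mycobacterium tuberculosis (UniProt P9WFT3). Concentration: 10 µM. Higher most likely means stronger inhibition; the record gives no direction and few retests gave an IC50. Size under these conditions: about 65,000 compounds, about 64 of them at 50% or above in at least one test.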
F: 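Protease assay of ClpP1P2, read by the AMC dye that it sets free. Target: ClpP1P2, Mycobacterium tuberculosis (UniProt P9WPC5 and UniProt P9WPC3). Compounds at 50 µM. Direction is inferred from only a few compounds that gave an IC50; most scored high, so higher reads as stronger inhibition. Most other retested compounds had strongly negative values. Of about 69,000 compounds tested this way, about 10 (0.015%) reached 50% or more in at least one test.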

Results are given as percent effect.
How 0% and 100% were set is not recorded. Most values in the screen are low, and negative values occur.
The compounds are a random part of those screened.
A dash means the value is not listed here; it may have been measured.

structure	A	B	C	D	E	F
Cc1cccc(C(=O)N2CCN(S(C)(=O)=O)[C@@H]3CS(=O)(=O)C[C@@H]32)n1	2.907%	-37.61%	-6.198%	3.804%	-7.64%	-6.661%
COc1ncc(-c2cc(-c3ccn(C)c3)nc(N)c2C#N)cn1	6.164%	9.804%	10.27%	2.762%	15.79%	-22.37%
O=C(COCCc1ccccc1)N1CCCC(n2cccn2)C1 (centres undefined)	24.13%	-1.701%	4.536%	7.563%	-0.2441%	-2.205%
Cc1nc(C2CCCN(C(C)C)C2)sc1Br (centres undefined)	0.8427%	-6.377%	3.563%	1.538%	-4.959%	-11.22%
COc1cc(CNCC(O)c2ccc(C)cc2)cc2c1OCCO2 (centres undefined)	2.74%	-13.15%	-3.71%	4.215%	-3.401%	13.41%
CC(=O)NCCCc1ncnn1-c1cccc(Cl)c1	3.225%	-8.737%	1.512%	-16.33%	-3.191%	-3.299%
O=C(CCN1CCOC1=O)Nc1cnn(-c2ccccc2Cl)c1	2.346%	-20.67%	4.592%	5.263%	0.5313%	3.857%
NC1CCCCN(Cc2ccccc2CS(=O)(=O)c2ccccc2)C1 (centres undefined)	4.091%	-21.12%	1.845%	11.49%	4.045%	-10.05%
CCOCC1CN(CCN(C)C)Cc2cnn(CC3CCCC3)c21 (centres undefined)	6.339%	-19.43%	5.795%	-0.8772%	-1.201%	-8.983%
O=C(c1ccc2c(c1)[nH]c(=O)n2C1CCCC1)N1CCCSCC1	3.567%	-10.62%	-7.6%	6.897%	-1.699%	0.9158%
Cc1nc(C)c(C(=O)N2Cc3ccccc3OCC2CN(C)C)o1 (centres undefined)	-1.1%	-0.6341%	-1.456%	-0.3831%	0.2114%	-12.78%
CC(=O)N1CCC(Oc2ccc(Cl)cn2)CC1	-1.472%	-	4.051%	2.479%	-1.212%	-9.357%
Cc1nc(CN2CC(Cc3ccccc3)CC2=O)no1 (centres undefined)	6.649%	-1.823%	2.152%	7.317%	1.496%	0.5613%
N#Cc1ccc(CN2CCCCC2Cn2cncn2)cc1 (centres undefined)	-5.189%	3.125%	-3.478%	2.674%	9.73%	-3.087%
Cc1ncc(CN2CCN(C(=O)N(C)C)[C@@H]3CS(=O)(=O)C[C@@H]32)cn1	7.653%	-1.807%	0.3645%	-1.98%	2.572%	0.5003%
Cc1noc(C)c1CN1CCCC2(C1)CN(Cc1nccn1C)CCO2 (centres undefined)	8.891%	-	4.235%	4.902%	3.092%	0.1967%
CCN1CCC(=O)N(C)Cc2cc(F)ccc21	3.023%	10.07%	3.39%	-3.371%	-	-11.73%
O=C(NCC1CCCCC1)NC1CCCc2c1cnn2CCO (centres undefined)	9.927%	-	-4.959%	15%	-0.7965%	3.649%
Cc1ncsc1C(=O)NCCCN1CCCCCC1=O	4.116%	4.529%	-1.38%	6.468%	1.683%	2.414%
Cc1ccc2ncccc2c1CN1CC[C@H](N(C)C)[C@H](CCC(=O)O)C1	5.549%	-7.794%	-2.982%	3.704%	3.485%	-0.978%
CCc1cc(N[C@H]2CC[C@H](O)CC2)n2nc(C)c(C)c2n1	4.303%	3.541%	0.8439%	4.065%	-0.1896%	-1.105%
c1cnn(CC2CN(Cc3csc(-c4ccsc4)n3)CCO2)c1 (centres undefined)	0.5206%	-8.058%	0.7335%	8.247%	-2.271%	-26.65%
Cc1ccc(-c2nc(C(=O)N3CCN(C(=O)N(C)C)CC3)cs2)c(C)c1	-0.7389%	-10.75%	11.83%	4.373%	1.838%	-21.2%
Cc1ccc(O)c(CNCC(C)c2nc3ccccc3o2)n1 (centres undefined)	15.67%	-6.767%	1.946%	6.667%	0.9497%	12.75%
CN1CCN(C[C@@H]2CN(C3Cc4ccccc4C3)C[C@@H]2CO)CC1	-6.006%	-21.46%	-3.444%	1.026%	19.64%	10.64%
O=C1CC(c2ccccc2F)c2c(n(C3CCCC3)[nH]c2=O)N1 (centres undefined)	5.627%	-32.8%	5.196%	1.293%	-1.254%	-7.956%
CNC(=O)c1cccnc1N1CCN(C/C=C/c2ccccc2)CC1	0.302%	-1.644%	1.098%	9.036%	1.987%	-6.305%
CC(C)(C)c1ccn(C2(C(=O)O)CCN(c3ncccc3C#N)CC2)n1	1.441%	-3.653%	0.7653%	0.4464%	1.91%	-49.2%
O=C1O[C@@H]2CN(C3CCOCC3)C[C@@H]2N1CCCc1ccc(F)cc1	3.53%	1.755%	7.522%	-1.754%	-2.853%	-22.22%
COc1ccc2cnn(CC(=O)NC3CCCCC3)c(=O)c2c1OC	1.255%	-20.72%	-4.373%	11.46%	-7.148%	-25.85%
N#Cc1cc(NC(=O)c2ccncc2)ccc1N1CCC(O)CC1	4.999%	11.3%	1.603%	3.941%	-2.028%	-6.032%
CCn1cc(CN2C[C@@H]3CCCN3C[C@@H]2CCSC)c(C)n1	6.733%	-23.81%	7.772%	1.639%	-4.934%	-1.127%
CC(C)C(=O)N1CCCC1C(=O)Nc1cc(C(F)(F)F)ccc1F (centres undefined)	1.884%	-17.49%	-1.148%	7.179%	5.485%	-2.824%
Cc1ccccc1C(C(=O)NCCn1cccc1)N(C)C (centres undefined)	0.0967%	-8.886%	7.075%	4.124%	2.156%	-8.094%
CC(Cn1cccn1)NC(=O)N1CCCN(Cc2cccs2)CC1 (centres undefined)	-0.0494%	-1.805%	6.403%	9.012%	-9.181%	-22.13%
Cc1[nH]ncc1C(=O)N1CCCN(Cc2nccn2C(C)C)CC1	2.911%	-17.89%	3.684%	7.331%	-4.813%	-19.66%
O=C(CCn1cnnc1)N1CCCC(c2ncc[nH]2)C1 (centres undefined)	3.721%	-4.718%	0.2132%	5.785%	-1.354%	-0.579%
CS(=O)(=O)CCOc1nc(-c2ccccc2Cl)no1	-4.919%	0.8866%	-1.665%	1.84%	-0.3856%	1.247%

Repeated from the top, 5 entries:

| structure | A | B | C | D | E | F |
|---|---|---|---|---|---|---|
| `Cc1cccc(C(=O)N2CCN(S(C)(=O)=O)[C@@H]3CS(=O)(=O)C[C@@H]32)n1` | 2.907% | -37.61% | -6.198% | 3.804% | -7.64% | -6.661% |
| `COc1ncc(-c2cc(-c3ccn(C)c3)nc(N)c2C#N)cn1` | 6.164% | 9.804% | 10.27% | 2.762% | 15.79% | -22.37% |
| `O=C(COCCc1ccccc1)N1CCCC(n2cccn2)C1` (centres undefined) | 24.13% | -1.701% | 4.536% | 7.563% | -0.2441% | -2.205% |
| `Cc1nc(C2CCCN(C(C)C)C2)sc1Br` (centres undefined) | 0.8427% | -6.377% | 3.563% | 1.538% | -4.959% | -11.22% |
| `COc1cc(CNCC(O)c2ccc(C)cc2)cc2c1OCCO2` (centres undefined) | 2.74% | -13.15% | -3.71% | 4.215% | -3.401% | 13.41% |